# Earlier results in article PMC6538516 (Journal of Veterinary Science, 2019).
# Tested on: CYP1A
# Settings: hepatic microsomes from Beagles; ref 13 (Regmi et al.); cited from earlier work
compound,measurement,value
O=C(O)c1cn(C2CC2)c2cc(N3CCNCC3)c(F)cc2c1=O [ciprofloxacin],CYP1A-inhibiting effect,inhibited CYP1A in a non-competitive manner
